Drawing on publication PMC4618286, this text covers binding for four molecules.

Experiment [1] addresses T1, His-tagged version of CotH (CotH-His) (Bacillus subtilis) (UniProt Q45535).
T1 sequence: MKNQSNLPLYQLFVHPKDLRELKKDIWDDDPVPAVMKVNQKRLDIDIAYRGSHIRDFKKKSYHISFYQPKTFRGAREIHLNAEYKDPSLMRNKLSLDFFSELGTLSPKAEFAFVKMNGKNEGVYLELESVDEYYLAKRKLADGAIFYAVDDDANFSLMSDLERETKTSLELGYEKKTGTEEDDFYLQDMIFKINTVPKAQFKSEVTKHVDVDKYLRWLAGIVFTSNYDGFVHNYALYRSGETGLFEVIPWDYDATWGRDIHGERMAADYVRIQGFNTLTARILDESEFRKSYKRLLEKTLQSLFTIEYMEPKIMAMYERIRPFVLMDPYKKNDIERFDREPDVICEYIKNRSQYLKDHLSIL
In words: pull-down; His tag pull-down: 300 ug extract with CotH-His bound to Ni-NTA magnetic agarose beads and washed; 300 ug E. coli extract with untagged CotE added, 1 h at room temperature; 50 mM NaH2PO4, 300 mM NaCl; washes with 40, 100 and 250 mM imidazole, elution with 500 mM and 1 M imidazole; immunoblot with anti-CotH and anti-CotE; only the target purified. For orientation: A western blot detects proteins with antibodies after separation by electrophoresis.

Experiment [2] concerns the target T1, His-tagged version of CotH (CotH-His) (Bacillus subtilis). As to the kind of experiment: pull-down; same His tag pull-down with CotH-His on Ni-NTA beads and the CotE versions lacking 6 C-terminal residues; data not shown; only the target purified.

Results are given in words; binding and its absence hold for the method and conditions named. Binding seen in cells or lysates may run through a third protein. Some binding calls cover weakened binding; strength is not graded here. Sequences can lack the tags named with a protein.

B1: CotE lacking the C-terminal 9 amino acids with the addition of two glutamic acid (EE) residues (domain or fragment, UniProt P14016 1-172)
chain: MSEYREIITKAVVAKGRKFTQCTNTISPEKKPSSILGGWIINHKYDAEKIGKTVEIEGYYDINVWYSYADNTKTEVVTERVKYVDVIKLRYRDNNYLDDEHEVIAKVLQQPNCLEVTISPNGNKIVVQAEREFLAEVVGETKVVVEVNPDWEEDDEEDWEDELDEELEDINPEE
For the molecule B1, the binding result in experiment [1] was “binds”.

B2: untagged version of CotE (protein, UniProt P14016 1-181)
chain: MSEYREIITKAVVAKGRKFTQCTNTISPEKKPSSILGGWIINHKYDAEKIGKTVEIEGYYDINVWYSYADNTKTEVVTERVKYVDVIKLRYRDNNYLDDEHEVIAKVLQQPNCLEVTISPNGNKIVVQAEREFLAEVVGETKVVVEVNPDWEEDDEEDWEDELDEELEDINPEFLVGDPEE
For B2, the binding entry in experiment [1] is “binds”.

B3: CotE lacking 9 amino acids (untagged CotE -9) (domain or fragment, UniProt P14016 1-172)
chain: MSEYREIITKAVVAKGRKFTQCTNTISPEKKPSSILGGWIINHKYDAEKIGKTVEIEGYYDINVWYSYADNTKTEVVTERVKYVDVIKLRYRDNNYLDDEHEVIAKVLQQPNCLEVTISPNGNKIVVQAEREFLAEVVGETKVVVEVNPDWEEDDEEDWEDELDEELEDINP
Consider B3, for which the binding result in experiment [1] is given as “no binding”.

B4: CotE lacking the 6 C-terminal residues with a glutamic acid (E) residue added (domain or fragment, UniProt P14016 1-175)
chain: MSEYREIITKAVVAKGRKFTQCTNTISPEKKPSSILGGWIINHKYDAEKIGKTVEIEGYYDINVWYSYADNTKTEVVTERVKYVDVIKLRYRDNNYLDDEHEVIAKVLQQPNCLEVTISPNGNKIVVQAEREFLAEVVGETKVVVEVNPDWEEDDEEDWEDELDEELEDINPEFLE
On to B4, for which the binding result in experiment [2] is recorded as “binds”.
